Source: US7122651B1, “Nucleic acid molecules encoding opioid growth factor receptors” (priority 1998, dated 2006)

Biological target: T1, nuclear homogenates of human pancreatic tumor cells (PANC-1) (Homo sapiens, UniProt Q9NZT2)
T1 construct: host or cells: PANC-1; nuclear (P1) homogenates, and P2, P3 and S3 fractions in the fractionation study
T1 sequence (Q9NZT2 1-677): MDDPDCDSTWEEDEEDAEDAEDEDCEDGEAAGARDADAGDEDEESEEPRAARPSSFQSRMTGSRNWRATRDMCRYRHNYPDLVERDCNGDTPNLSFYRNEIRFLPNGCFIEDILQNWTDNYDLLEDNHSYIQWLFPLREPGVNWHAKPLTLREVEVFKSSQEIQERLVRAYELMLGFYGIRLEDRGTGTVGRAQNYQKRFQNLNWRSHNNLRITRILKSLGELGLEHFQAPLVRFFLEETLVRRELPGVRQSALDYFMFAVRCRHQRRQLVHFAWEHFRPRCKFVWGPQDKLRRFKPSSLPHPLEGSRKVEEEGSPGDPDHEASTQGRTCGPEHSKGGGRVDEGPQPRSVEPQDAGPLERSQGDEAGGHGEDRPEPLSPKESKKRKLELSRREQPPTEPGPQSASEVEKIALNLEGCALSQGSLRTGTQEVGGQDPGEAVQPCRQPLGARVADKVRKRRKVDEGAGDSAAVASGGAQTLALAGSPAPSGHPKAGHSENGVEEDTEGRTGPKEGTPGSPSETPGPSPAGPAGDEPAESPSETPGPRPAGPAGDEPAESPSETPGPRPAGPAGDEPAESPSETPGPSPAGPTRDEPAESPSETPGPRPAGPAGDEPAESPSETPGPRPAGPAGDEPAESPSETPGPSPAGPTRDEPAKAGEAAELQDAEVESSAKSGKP
Test: Competition for binding of [^3H]-[Met^5]-enkephalin in PANC-1 nuclear homogenates
Settings: 1 or 2 nM radioligand
Experimental: Each concentration was run in triplicate and every compound was tested twice.
Analysis and statistics. Receptor binding data were analyzed with either the Lundon I (Saturation Isotherm Binding Analysis) computer program (Lundon Software, Cleveland, Ohio) or GraphPad Prism software. Both programs utilize nonlinear least-squares regression. Binding isotherms and Scatchard plots were computed directly by the programs. […] Comparisons of Bmax and Kd values were made using analysis of variance and posthoc Newman-Keuls tests.
Competition experiments using 1 or 2 nM [^3H]

`CN1CC[C@]23c4c5ccc(O)c4O[C@H]2[C@@H](O)C=C[C@H]3[C@H]1C5` [Morphine] was tested, and the “competition for [^3H][Met^5]-enkephalin binding” value was “little or no competition”.
